Measurements taken from paper PMC4800423.
Results are given in words; binding and its absence hold for the method and conditions named. In cells and extracts the contact can be indirect. Where a sequence is shown, tags or fusion partners need not be part of it.

Molecular target: est2ΔCP-myc (S. cerevisiae) (UniProt Q06163)
Test: co-IP; Myc-tagged est2ΔCP immunoprecipitated from lysates of strains co-expressing Est2-HA; TLC1 RNA in the immunoprecipitate measured by qRT-PCR as a proxy for Est2-HA

binding: no binding
B1: Est2-HA (wild type) (enzyme, UniProt Q06163 1-884)
chain: MKILFEFIQDKLDIDLQTNSTYKENLKCGHFNGLDEILTTCFALPNSRKIALPCLPGDLSHKAVIDHCIIYLLTGELYNNVLTFGYKIARNEDVNNSLFCHSANVNVTLLKGAAWKMFHSLVGTYAFVDLLINYTVIQFNGQFFTQIVGNRCNEPHLPPKWAQRSSSSSATAAQIKQLTEPVTNKQFLHKLNINSSSFFPYSKILPSSSSIKKLTDLREAIFPTNLVKIPQRLKVRINLTLQKLLKRHKRLNYVSILNSICPPLEGTVLDLSHLSRQSPKERVLKFIIVILQKLLPQEMFGSKKNKGKIIKNLNLLLSLPLNGYLPFDSLLKKLRLKDFRWLFISDIWFTKHNFENLNQLAICFISWLFRQLIPKIIQTFFYCTEISSTVTIVYFRHDTWNKLITPFIVEYFKTYLVENNVCRNHNSYTLSNFNHSKMRIIPKKSNNEFRIIAIPCRGADEEEFTIYKENHKNAIQPTQKILEYLRNKRPTSFTKIYSPTQIADRIKEFKQRLLKKFNNVLPELYFMKFDVKSCYDSIPRMECMRILKDALKNENGFFVRSQYFFNTNTGVLKLFNVVNASRVPKPYELYIDNVRTVHLSNQDVINVVEMEIFKTALWVEDKCYIREDGLFQGSSLSAPIVDLVYDDLLEFYSEFKASPSQDTLILKLADDFLIISTDQQQVINIKKLAMGGFQKYNAKANRDKILAVSSQSDDDTVIQFCAMHIFVKELEVWKHSSTMNNFHIRSKSSKGIFRSLIALFNTRISYKTIDTNLNSTNTVLMQIDHVVKNISECYKSAFKDLSINVTQNMQFHSFLQRIIEMTVSGCPITKCDPLIEYEVRFTILNGFLESLSSNTSKFKDNIILLRKEIQHLQAYIYIYIHIVN
